# Measured values as given in article PMC12320246.
# By UniProt entry, the sequences of proteins in these tests, tags left out.
# UniProt O00425: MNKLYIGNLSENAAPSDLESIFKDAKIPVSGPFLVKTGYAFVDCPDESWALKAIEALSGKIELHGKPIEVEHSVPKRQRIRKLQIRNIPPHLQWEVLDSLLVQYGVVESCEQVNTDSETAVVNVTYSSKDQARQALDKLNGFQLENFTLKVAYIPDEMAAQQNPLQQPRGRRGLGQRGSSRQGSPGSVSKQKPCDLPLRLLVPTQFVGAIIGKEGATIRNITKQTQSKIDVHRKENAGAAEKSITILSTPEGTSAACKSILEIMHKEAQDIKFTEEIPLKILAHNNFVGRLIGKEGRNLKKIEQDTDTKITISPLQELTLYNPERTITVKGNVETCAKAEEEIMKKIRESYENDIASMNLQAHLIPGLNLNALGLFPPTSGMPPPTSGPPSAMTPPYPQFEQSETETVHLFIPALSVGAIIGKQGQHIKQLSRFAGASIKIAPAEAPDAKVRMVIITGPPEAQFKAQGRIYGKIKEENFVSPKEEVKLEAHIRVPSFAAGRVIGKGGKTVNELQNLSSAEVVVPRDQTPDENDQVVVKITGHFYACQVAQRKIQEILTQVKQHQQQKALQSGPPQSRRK
# These are yes or no findings as the source states them, for the method shown. Binding seen in cells or lysates may run through a third protein. Some binding calls cover weakened binding; strength is not graded here. For part of these data: Sequences can lack the tags named with a protein.
# Experiments:
# [1] = target: T1, His-tagged OLFML1 (OLFML1^His), exogenously expressed in HEK293T (human) (UniProt Q6UWY5); assay: co-IP; HEK293T cells co-transfected with His-tagged OLFML1 and Flag-tagged IGF2BP3 constructs (whole or truncated); IP with anti-Flag or anti-His; immunoblot with anti-Flag or anti-His
# T1 sequence: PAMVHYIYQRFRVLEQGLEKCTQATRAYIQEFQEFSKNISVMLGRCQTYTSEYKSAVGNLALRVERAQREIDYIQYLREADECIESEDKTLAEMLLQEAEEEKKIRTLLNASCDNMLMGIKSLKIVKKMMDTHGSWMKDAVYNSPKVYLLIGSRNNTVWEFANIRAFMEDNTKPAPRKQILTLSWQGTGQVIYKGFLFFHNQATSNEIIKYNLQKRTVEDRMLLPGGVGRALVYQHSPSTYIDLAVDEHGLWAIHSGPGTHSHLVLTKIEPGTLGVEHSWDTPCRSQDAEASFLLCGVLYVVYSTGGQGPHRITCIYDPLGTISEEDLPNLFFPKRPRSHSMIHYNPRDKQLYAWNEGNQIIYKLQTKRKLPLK
# [2] = target: T2, Bacteria-expressed, purified His-tagged OLFML1 protein (rOLFML1^His) (human) (UniProt Q6UWY5); assay: pull-down; purified bacteria-expressed His-tagged OLFML1 on IDA-Nickel His beads, incubated overnight with lysate of 293T cells transfected with IGF2BP3; bound proteins eluted and analysed by western blot; only the target purified
# T2 sequence: T1 sequence
# [3] = target: T3, Olfactomedin-like 1 (OLFML1), endogenously expressed (human (endogenous in HCT8 and CaCo2)) (UniProt Q6UWY5); assay: co-IP; endogenous proteins in HCT8 and CaCo2 lysate (RIPA buffer); IP with antibodies against OLFML1 or IGF2BP3 on Protein A/G agarose, 4 °C overnight; rabbit IgG as negative control; western blot
# T3 sequence: T1 sequence
binding [1],binding [2],binding [3],Substance
binds,binds,–,Flag-tagged IGF2BP3 (IGF2BP3^Flag) (from UniProt O00425 1-579)
–,–,binds,"Insulin-like growth factor 2 mRNA-binding protein 3 (IGF2BP3), endogenously expressed (from UniProt O00425 1-579)"
